Laboratory results taken from the supplement of paper PMC12819154, “High-throughput peptide-centric local stability assay extends protein–ligand identification to membrane proteins, tissues and bacteria” (Nature Structural & Molecular Biology, 2025).
The other results are listed elsewhere or left out. Small differences around the control level are noise.

The chains behind the UniProt entries cited, without tags or fusion partners. Where a name states a change or a piece, a line headed by the entry shows the natural chain unless it says otherwise.
UniProt P56656: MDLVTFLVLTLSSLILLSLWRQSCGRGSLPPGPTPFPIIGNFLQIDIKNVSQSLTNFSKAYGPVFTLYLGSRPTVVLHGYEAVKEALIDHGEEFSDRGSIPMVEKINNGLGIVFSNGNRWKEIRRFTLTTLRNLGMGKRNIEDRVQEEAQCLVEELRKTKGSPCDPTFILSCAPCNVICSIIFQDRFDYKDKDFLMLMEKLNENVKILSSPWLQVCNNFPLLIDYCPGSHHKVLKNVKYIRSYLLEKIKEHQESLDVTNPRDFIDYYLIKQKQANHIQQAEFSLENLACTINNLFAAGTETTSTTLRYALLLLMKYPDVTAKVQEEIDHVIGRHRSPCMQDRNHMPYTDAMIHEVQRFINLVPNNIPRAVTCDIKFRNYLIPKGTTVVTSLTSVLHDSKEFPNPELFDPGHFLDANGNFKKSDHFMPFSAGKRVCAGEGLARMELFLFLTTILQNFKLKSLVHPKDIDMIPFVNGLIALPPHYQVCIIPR
UniProt P58269, whole entry: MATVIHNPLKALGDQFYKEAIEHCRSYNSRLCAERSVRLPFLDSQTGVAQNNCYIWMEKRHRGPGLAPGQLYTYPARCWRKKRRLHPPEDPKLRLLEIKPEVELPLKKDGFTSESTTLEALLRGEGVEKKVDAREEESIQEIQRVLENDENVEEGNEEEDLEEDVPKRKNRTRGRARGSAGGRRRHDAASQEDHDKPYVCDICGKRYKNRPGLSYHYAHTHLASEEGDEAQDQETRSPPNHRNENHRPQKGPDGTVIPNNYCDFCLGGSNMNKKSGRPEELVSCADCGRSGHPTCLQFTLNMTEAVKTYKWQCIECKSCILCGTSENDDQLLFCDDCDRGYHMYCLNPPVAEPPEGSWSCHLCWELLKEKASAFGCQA
UniProt P54797: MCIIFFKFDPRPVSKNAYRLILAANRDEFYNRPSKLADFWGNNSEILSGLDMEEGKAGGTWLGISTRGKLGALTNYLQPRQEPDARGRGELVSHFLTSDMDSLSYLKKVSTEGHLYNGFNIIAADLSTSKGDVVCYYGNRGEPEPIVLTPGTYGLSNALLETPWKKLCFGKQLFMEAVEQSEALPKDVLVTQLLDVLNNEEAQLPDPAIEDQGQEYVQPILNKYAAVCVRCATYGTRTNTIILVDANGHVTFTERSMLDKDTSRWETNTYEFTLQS
UniProt P58802: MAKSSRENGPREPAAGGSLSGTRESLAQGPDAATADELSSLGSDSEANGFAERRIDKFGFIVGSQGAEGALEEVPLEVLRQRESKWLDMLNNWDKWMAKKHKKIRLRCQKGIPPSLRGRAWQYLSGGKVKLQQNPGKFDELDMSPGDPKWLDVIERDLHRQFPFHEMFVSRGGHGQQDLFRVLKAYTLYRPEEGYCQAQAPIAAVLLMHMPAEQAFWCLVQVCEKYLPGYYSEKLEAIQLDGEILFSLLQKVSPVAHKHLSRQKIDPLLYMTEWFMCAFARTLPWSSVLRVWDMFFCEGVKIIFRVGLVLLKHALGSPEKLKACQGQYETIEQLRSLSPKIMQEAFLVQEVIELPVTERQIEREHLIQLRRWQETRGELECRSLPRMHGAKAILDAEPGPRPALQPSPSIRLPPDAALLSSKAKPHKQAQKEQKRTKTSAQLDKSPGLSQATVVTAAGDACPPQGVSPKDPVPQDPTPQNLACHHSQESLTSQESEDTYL
UniProt P63030: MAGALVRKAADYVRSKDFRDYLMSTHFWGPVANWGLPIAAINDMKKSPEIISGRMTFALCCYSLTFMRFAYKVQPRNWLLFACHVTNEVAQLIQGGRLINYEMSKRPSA
UniProt P55012: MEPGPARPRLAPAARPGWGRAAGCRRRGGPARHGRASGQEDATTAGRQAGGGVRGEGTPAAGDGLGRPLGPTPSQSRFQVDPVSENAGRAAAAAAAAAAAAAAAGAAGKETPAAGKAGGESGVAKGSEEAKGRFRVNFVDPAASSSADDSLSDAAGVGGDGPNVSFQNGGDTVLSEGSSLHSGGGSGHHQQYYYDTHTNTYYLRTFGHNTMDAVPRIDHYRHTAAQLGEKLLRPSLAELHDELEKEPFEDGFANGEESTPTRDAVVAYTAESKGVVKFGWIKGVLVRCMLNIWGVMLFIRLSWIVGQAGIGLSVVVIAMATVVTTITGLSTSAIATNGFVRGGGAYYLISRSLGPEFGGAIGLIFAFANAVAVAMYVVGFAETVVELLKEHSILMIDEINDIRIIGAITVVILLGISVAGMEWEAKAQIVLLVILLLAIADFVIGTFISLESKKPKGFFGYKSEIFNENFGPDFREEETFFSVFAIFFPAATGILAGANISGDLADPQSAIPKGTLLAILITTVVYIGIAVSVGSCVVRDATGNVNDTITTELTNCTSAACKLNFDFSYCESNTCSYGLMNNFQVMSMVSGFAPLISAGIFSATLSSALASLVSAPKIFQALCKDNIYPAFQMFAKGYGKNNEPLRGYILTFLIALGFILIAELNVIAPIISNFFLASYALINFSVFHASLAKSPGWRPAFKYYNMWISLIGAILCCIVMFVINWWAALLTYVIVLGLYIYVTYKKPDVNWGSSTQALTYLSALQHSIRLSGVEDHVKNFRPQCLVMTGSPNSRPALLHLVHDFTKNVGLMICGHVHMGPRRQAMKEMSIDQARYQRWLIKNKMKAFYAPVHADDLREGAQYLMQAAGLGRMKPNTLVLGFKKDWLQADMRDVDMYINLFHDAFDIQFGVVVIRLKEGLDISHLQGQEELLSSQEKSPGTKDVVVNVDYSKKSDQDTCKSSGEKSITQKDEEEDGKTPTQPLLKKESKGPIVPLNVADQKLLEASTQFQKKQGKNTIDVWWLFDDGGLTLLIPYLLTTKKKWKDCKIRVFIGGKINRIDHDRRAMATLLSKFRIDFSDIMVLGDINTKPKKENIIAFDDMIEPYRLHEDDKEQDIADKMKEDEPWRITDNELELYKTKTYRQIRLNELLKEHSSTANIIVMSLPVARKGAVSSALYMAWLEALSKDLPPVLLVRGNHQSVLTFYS
UniProt P63040: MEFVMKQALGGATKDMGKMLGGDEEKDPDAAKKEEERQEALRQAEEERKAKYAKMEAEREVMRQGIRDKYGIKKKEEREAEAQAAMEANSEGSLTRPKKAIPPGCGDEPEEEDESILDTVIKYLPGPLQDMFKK
UniProt P56974: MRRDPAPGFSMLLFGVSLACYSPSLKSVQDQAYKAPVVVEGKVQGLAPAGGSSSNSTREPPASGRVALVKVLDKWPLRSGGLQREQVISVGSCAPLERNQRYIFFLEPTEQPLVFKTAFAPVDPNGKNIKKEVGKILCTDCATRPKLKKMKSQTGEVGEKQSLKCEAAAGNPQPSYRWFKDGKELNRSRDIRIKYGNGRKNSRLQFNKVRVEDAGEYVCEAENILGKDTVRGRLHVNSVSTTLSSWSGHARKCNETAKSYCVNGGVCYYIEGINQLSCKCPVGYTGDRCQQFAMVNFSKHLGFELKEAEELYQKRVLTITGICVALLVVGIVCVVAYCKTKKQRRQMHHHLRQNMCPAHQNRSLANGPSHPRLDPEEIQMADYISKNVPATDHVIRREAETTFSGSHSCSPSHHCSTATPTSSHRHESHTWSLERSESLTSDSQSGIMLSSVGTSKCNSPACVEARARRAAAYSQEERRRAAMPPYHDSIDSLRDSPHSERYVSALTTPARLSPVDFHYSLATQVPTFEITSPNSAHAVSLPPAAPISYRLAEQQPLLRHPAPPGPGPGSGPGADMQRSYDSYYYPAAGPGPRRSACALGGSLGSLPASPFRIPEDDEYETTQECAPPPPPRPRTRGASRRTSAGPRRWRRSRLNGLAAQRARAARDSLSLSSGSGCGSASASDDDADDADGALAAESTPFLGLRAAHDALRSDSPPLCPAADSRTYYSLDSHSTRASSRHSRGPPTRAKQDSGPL
UniProt P56480, whole entry: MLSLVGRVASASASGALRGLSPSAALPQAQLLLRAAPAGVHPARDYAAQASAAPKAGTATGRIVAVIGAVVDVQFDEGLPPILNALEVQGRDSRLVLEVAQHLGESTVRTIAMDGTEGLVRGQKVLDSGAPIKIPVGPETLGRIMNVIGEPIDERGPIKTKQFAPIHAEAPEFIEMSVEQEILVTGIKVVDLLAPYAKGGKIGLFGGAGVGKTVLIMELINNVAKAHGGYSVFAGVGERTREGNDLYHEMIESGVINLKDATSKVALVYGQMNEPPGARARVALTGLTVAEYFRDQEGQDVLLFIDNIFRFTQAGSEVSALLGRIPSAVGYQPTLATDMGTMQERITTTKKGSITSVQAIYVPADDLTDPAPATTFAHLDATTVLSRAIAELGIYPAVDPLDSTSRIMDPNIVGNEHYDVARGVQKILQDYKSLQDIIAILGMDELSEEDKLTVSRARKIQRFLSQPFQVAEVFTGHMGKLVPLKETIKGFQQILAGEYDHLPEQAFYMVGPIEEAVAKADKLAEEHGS
UniProt P59729: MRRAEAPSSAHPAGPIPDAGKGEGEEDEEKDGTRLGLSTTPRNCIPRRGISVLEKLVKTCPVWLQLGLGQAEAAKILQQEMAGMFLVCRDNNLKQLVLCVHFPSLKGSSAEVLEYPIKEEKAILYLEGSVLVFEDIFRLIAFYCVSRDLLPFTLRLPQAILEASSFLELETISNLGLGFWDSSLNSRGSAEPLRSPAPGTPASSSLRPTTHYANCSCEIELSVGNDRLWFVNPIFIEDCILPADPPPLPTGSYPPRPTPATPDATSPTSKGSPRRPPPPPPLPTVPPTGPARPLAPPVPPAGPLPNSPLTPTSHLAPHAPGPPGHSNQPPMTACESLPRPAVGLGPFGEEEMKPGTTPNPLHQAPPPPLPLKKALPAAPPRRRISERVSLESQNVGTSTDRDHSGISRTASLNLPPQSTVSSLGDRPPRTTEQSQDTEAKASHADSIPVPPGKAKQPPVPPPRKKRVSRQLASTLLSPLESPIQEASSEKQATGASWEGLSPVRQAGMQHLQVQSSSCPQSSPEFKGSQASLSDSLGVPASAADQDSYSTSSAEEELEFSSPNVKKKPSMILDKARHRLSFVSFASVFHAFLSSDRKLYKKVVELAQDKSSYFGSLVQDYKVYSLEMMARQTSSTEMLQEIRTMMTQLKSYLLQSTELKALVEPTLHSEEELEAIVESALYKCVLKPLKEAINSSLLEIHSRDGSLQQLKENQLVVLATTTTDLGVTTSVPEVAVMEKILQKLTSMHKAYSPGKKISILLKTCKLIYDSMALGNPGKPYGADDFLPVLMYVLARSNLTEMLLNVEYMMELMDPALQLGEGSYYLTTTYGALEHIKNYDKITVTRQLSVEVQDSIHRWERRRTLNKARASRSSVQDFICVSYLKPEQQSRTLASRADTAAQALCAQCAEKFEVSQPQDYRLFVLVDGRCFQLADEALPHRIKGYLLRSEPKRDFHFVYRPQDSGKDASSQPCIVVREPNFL
UniProt P58854, whole entry: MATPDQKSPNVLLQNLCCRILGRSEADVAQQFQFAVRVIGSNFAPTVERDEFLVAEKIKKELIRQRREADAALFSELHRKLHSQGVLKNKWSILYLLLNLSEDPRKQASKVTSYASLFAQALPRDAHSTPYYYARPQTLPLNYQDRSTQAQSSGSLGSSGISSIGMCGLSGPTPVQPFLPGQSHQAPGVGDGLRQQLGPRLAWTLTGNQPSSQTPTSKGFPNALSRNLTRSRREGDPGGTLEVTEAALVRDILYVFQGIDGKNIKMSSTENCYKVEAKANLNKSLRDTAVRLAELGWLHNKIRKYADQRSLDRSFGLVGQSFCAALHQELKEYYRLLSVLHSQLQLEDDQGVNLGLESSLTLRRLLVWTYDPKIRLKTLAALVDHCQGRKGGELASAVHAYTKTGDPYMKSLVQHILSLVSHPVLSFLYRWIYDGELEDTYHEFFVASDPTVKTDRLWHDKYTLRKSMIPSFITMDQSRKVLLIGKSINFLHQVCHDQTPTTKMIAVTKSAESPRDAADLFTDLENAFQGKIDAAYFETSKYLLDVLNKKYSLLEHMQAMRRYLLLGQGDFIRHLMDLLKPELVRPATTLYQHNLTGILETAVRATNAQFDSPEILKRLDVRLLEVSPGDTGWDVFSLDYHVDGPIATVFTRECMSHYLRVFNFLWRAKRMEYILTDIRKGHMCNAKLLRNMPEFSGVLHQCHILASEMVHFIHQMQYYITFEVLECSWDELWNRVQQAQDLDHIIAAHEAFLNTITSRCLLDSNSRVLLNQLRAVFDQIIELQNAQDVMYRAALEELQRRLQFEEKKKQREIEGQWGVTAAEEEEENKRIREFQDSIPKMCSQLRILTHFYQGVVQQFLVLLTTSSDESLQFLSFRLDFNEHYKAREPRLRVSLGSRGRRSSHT
UniProt P54751: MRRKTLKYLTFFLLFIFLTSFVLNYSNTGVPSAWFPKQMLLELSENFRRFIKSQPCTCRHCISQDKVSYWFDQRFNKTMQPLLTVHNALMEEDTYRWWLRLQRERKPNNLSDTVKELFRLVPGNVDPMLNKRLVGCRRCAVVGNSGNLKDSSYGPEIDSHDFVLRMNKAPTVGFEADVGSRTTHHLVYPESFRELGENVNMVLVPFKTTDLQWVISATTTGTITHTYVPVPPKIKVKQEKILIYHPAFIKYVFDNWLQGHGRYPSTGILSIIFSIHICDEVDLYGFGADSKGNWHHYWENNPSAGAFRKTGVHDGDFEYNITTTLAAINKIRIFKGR

Each target was assayed with CN[C@@H]1C[C@H]2O[C@@](C)([C@@H]1OC)n1c3ccccc3c3c4c(c5c6ccccc6n2c5c31)C(=O)NC4 [staurosporine] (assay: log2 fold change of tryptic peptide abundance, ligand vs vehicle (limited proteolysis) (log2 ratio); higher = more trypsin-susceptible (destabilized)). Details: ligand concentration: 20 uM; sample: mouse liver crude lysate; replicate design: treated separately.

Target | log2 fold change
UniProt P54116 (peptide sequence: AKVIAAEGEMNASR, peptide start residue: 219) | -0.227
UniProt P59438 (peptide sequence: SPSPLVSLQAVK, peptide start residue: 532) | -0.0712
UniProt P56654 (peptide sequence: ATNGMGLAFSK, peptide start residue: 106) | -0.214
UniProt P62814 (peptide sequence: YAEIVHLTLPDGTK, peptide start residue: 68) | 0.345
UniProt P56656 (peptide sequence: VQEEAQCLVEELRK, peptide start residue: 145) | -0.236
UniProt P58269 (peptide sequence: LLEIKPEVELPLKK, peptide start residue: 95) | -0.0212
UniProt P62137 (peptide sequence: YGQFSGLNPGGR, peptide start residue: 306) | 0.134
UniProt P54797 (peptide sequence: CIIFFKFDPRPVSK, peptide start residue: 2) | 0.0999
UniProt P54254 (peptide sequence: HVVVHPSPADYSSR, peptide start residue: 336) | -0.193
UniProt P56371 (peptide sequence: DLDADREVTFLEASR, peptide start residue: 129) | -0.45
UniProt P58802 (peptide sequence: LPPDAALLSSK, peptide start residue: 412) | -0.194
UniProt P58929 (peptide sequence: EFVHLAGK, peptide start residue: 129) | -0.215
UniProt P63030 (peptide sequence: LINYEMSK, peptide start residue: 98) | -0.215
UniProt P56394 (peptide sequence: KPLKPCCACPETK, peptide start residue: 18) | 0.835
UniProt P55012 (peptide sequence: DAVVAYTAESK, peptide start residue: 263) | -0.242
UniProt P55050 (peptide sequence: LTITQDGNKFTVK, peptide start residue: 39) | 0.171
UniProt P63002 (peptide sequence: HSGSSHLPQQLK, peptide start residue: 8) | -0.0281
UniProt P63040 (peptide sequence: YLPGPLQDMFKK, peptide start residue: 123) | -0.293

Target | log2 fold change
UniProt P58801 (peptide sequence: MMSLSQSR, peptide start residue: 172) | 0.495
UniProt P56974 (peptide sequence: HSRGPPTRAK, peptide start residue: 741) | 0.0921
UniProt P59114 (peptide sequence: DSVEGICSK, peptide start residue: 354) | -0.354
UniProt P56480 (peptide sequence: IMNVIGEPIDERGPIKTK, peptide start residue: 144) | 0.149
UniProt P58544 (peptide sequence: ADNAFMLLTQAR, peptide start residue: 183) | 0.815
UniProt P60469 (peptide sequence: EIGISNPLHR, peptide start residue: 942) | 0.142
UniProt P58283 (peptide sequence: HSESEMGPMFFR, peptide start residue: 187) | 0.489
UniProt P62484 (peptide sequence: RMESSINHISQTVDIHKEK, peptide start residue: 85) | -0.463
UniProt P58069 (peptide sequence: NLLPYLGPNK, peptide start residue: 48) | -0.415
UniProt P62500 (peptide sequence: SHLMYAVREEVEVLKEQIK, peptide start residue: 688) | -0.17
UniProt P61211 (peptide sequence: IGISKSELVAMLEEEELRK, peptide start residue: 100) | -0.248
UniProt P58404 (peptide sequence: LKFGTDLNQGEK, peptide start residue: 135) | -0.489
UniProt P63037 (peptide sequence: YHPDKNPNEGEKFK, peptide start residue: 33) | 0.157
UniProt P59729 (peptide sequence: SYLLQSTELK, peptide start residue: 650) | -0.353
UniProt P58854 (peptide sequence: DAHSTPYYYAR, peptide start residue: 125) | -0.921
UniProt P63054 (peptide sequence: AAVAIQSQFR, peptide start residue: 42) | -0.153
UniProt P62774 (peptide sequence: DYVAKGEDVNR, peptide start residue: 20) | -0.194
UniProt P54751 (peptide sequence: VSYWFDQR, peptide start residue: 67) | 0.315

Retrieved one by one from the entries so far, 2 records:
Target | log2 fold change
UniProt P63030 (peptide sequence: LINYEMSK, peptide start residue: 98) | -0.215
UniProt P56654 (peptide sequence: ATNGMGLAFSK, peptide start residue: 106) | -0.214
